Record: PubChem BioAssay AID686943 (Drosophila RNAi Screening Center, 2013)
Test: 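Search across the genome for regulators of signalling from receptor tyrosine kinase to ERK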 (primary screen). System: Drosophila S2R+ haemocyte-like cells expressing YFP-tagged ERK (Rolled). Knock-down reagent: long dsRNA against Drosophila genes. Conditions: insulin stimulation versus unstimulated cells; dose and duration not given. Read-out: 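Antibody staining for doubly phosphorylated ERK divided by ERK-YFP signal, as plate z-scores, in insulin-treated and untreated cells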. Direction: replicate 1, z-score of dpERK with insulin and replicate 2, z-score of dpERK with insulin: higher = more active ERK per ERK-YFP after insulin; replicate 1, z-score of dpERK under basal conditions: higher = more basal active ERK per ERK-YFP.
In all, the deposit lists about 23,000 reagents; shown is a random part of those with a known target gene and a result. 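Extra replicates exist only for a retested subset of genes; insulin dose and duration not given; both raised and lowered dpERK matter.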 Names joined by + are all predicted targets of the reagent. Not all columns of the deposit are shown. Not given: the amount of reagent, the time to read-out.

| gene | amplicon | replicate 1, z-score of dpERK with insulin | replicate 2, z-score of dpERK with insulin | replicate 1, z-score of dpERK under basal conditions |
| --- | --- | --- | --- | --- |
| JMJD4 (Jumonji domain containing 4) | DRSC03025 | 0.27 | -0.1 | -1.16 |
| CG4704 | DRSC15628 | -0.3 | 0 | 0.2 |
| CG14797 + CG32809 | DRSC18562 | -0.19 | 1.43 | -0.07 |
| CG7295 | DRSC00699 | -0.66 | 4.71 | -1.02 |
| Hrb87F (Heterogeneous nuclear ribonucleoprotein at 87F) | DRSC16708 | -0.72 | 0.25 | -0.29 |
| Papst2 (PAPS transporter 2) | DRSC10924 | -0.61 | 0.28 | 0.37 |
| bsh (brain-specific homeobox) | DRSC03498 | -0.87 | -0.5 | -1.7 |
| ea (easter) | DRSC16939 | 0.47 | -1.62 | -0.2 |
| Jhbp14 (Juvenile hormone binding protein 14) | DRSC01988 | 0.31 | -0.17 | -1.08 |
| CG14229 | DRSC19585 | -1.92 | -2.35 | 0.65 |
| S-Lap5 (Sperm-Leucylaminopeptidase 5) | DRSC06732 | 0.71 | -0.55 | -0.74 |
| Aldh-III (Aldehyde dehydrogenase type III) | DRSC06047 | 0.52 | 0.05 | -0.4 |
| Mtk (Metchnikowin) | DRSC07475 | 0.52 | 0.16 | 1.39 |
| betaNACtes5 (Nascent-associated complex beta-subunit-like, testis 5) | DRSC19100 | 0.06 | -0.86 | -0.66 |
| nAChRalpha3 (nicotinic Acetylcholine Receptor alpha3) | DRSC18800 | -0.14 | 0.08 | 0.05 |
| fan (farinelli) | DRSC10930 | 0.5 | 0.2 | -0.68 |
| Tim17a2 | DRSC12252 | 0.26 | -0.77 | 0.01 |
| CG10953 | DRSC06021 | 1.03 | 0.36 | 0.27 |
| eIF4E7 (eukaryotic translation initiation factor 4E7) | DRSC17782 | 0.39 | 0.53 | -0.37 |
| eIF4E7 (eukaryotic translation initiation factor 4E7) | DRSC18623 | -0.45 | -0.39 | -0.14 |
| Nna1 (Nna1 carboxypeptidase) | DRSC18993 | 0.56 | 0.1 | 0.72 |
| Nna1 (Nna1 carboxypeptidase) | DRSC19404 | 1.06 | -0.13 | -0.71 |
| eIF3a (eukaryotic translation initiation factor 3 subunit a) | DRSC12339 | -2.04 | -0.5 | -3.73 |
| CG17118 | DRSC02579 | -0.29 | -0.2 | 0.43 |
| SdhD (Succinate dehydrogenase, subunit D) | DRSC14215 | -0.87 | 0 | -0.23 |
| Gr47a (Gustatory receptor 47a) | DRSC06221 | -0.05 | -0.4 | -0.2 |

Next part, starting with the last 5 of the part before.
| gene | amplicon | replicate 1, z-score of dpERK with insulin | replicate 2, z-score of dpERK with insulin | replicate 1, z-score of dpERK under basal conditions |
| --- | --- | --- | --- | --- |
| Nna1 (Nna1 carboxypeptidase) | DRSC19404 | 1.06 | -0.13 | -0.71 |
| eIF3a (eukaryotic translation initiation factor 3 subunit a) | DRSC12339 | -2.04 | -0.5 | -3.73 |
| CG17118 | DRSC02579 | -0.29 | -0.2 | 0.43 |
| SdhD (Succinate dehydrogenase, subunit D) | DRSC14215 | -0.87 | 0 | -0.23 |
| Gr47a (Gustatory receptor 47a) | DRSC06221 | -0.05 | -0.4 | -0.2 |
| CG11131 | DRSC11636 | 1.08 | 1.59 | 3.49 |
| CG11131 | DRSC21736 | -0.49 | -0.86 | -0.53 |
| fend (forked end) | DRSC17601 | 0.47 | 0.23 | -1.45 |
| fend (forked end) | DRSC17867 | -0.08 | -0.02 | -1.47 |
| raptor | DRSC18359 | 3.61 | 2.9 | -2.04 |
| X11L | DRSC19958 | 0.97 | 0 | 1.06 |
| X11L | DRSC19959 | 0.66 | -0.13 | -0.35 |
| CG14763 | DRSC06497 | 0.45 | 0.6 | -0.28 |
| Agpat2 (1-Acylglycerol-3-phosphate O-acyltransferase 2) | DRSC03532 | 0.1 | 0.99 | 0.61 |
| CG42813 | DRSC15939 | -0.02 | 0.3 | -0.41 |
| fs(1)h (female sterile (1) homeotic) | DRSC18778 | 0.87 | 0.41 | -0.24 |
| CG34342 | DRSC09756 | 0.55 | 0.42 | 0.11 |
| CG34342 | DRSC22515 | 0.62 | 0.04 | 1.57 |
| jtb (jetboil) | DRSC06868 | 0.9 | 0.96 | 1.59 |
| eIF2alpha (eukaryotic translation initiation factor 2 subunit alpha) | DRSC20327 | -0.46 | -2.72 | -2.4 |
| CG3081 | DRSC18571 | 0.29 | 0.27 | 0.69 |
| GXIVsPLA2 | DRSC10243 | 0.77 | 0.69 | -0.04 |
| CG17109 | DRSC15172 | 0.8 | -0.22 | 0.7 |
| Rai1 (Rat1 Interacting Protein 1) | DRSC20157 | 0.64 | -0.12 | -0.72 |
| CG31373 | DRSC16052 | -1.09 | -1.39 | 0.87 |
| dmGlut (Dietary and metabolic glutamate transporter) | DRSC02835 | 0.17 | 0.33 | -1.03 |
| CG10237 | DRSC02029 | -0.23 | -0.18 | -1.48 |
| Tep5Psi (Thioester-containing protein 5 pseudogene) | DRSC02183 | 0.68 | 0.03 | 0.53 |
| Tep5Psi (Thioester-containing protein 5 pseudogene) | DRSC02184 | 0.08 | -1 | -0.83 |
| Nf-YB (Nuclear factor Y-box B) | DRSC02057 | 0.83 | -0.02 | -0.27 |
| hale (hale-bopp) | DRSC10882 | 0.32 | -0.41 | -1.1 |
| CG17490 | DRSC03794 | -1.08 | 0.68 | -1.07 |
| CG17490 | DRSC03797 | -1.02 | -0.05 | 0.96 |
| Slbp (Stem-loop binding protein) | DRSC16863 | 0.45 | 0.42 | 0.52 |
| C1GalTA (Core 1 Galactosyltransferase A) | DRSC03246 | 0.59 | 0.25 | 1.73 |
| Hmg-2 (High mobility group protein 2) | DRSC04554 | -2.09 | -2.28 | -0.07 |
| CG13308 | DRSC09979 | -0.44 | -0.14 | – |
| mip40 (Myb-interacting protein 40) | DRSC06541 | 0.01 | -0.14 | 0.9 |
| Obp57c (Odorant-binding protein 57c) | DRSC06384 | 0.28 | -0.86 | -0.99 |
| CG11668 | DRSC14341 | 0.53 | 0.93 | 0.55 |
| CG32572 | DRSC19525 | -0.07 | 0.21 | -0.12 |
| CG32572 | DRSC19526 | -0.13 | -0.12 | 1.06 |
| CG11566 (retired record) + stg1 | DRSC20473 | -1.79 | -2.24 | -2.69 |
| CG11566 (retired record) + stg1 | DRSC20481 | 1.44 | 1.27 | -0.14 |
| CG11566 (retired record) + stg1 | DRSC20482 | -0.95 | -1.19 | -0.27 |
| CG11566 (retired record) + stg1 | DRSC20483 | 0.21 | 0.15 | -0.42 |
| Surf4 (Surfeit 4) | DRSC16875 | 0.34 | 0.48 | 0.19 |
| CG4404 | DRSC19897 | 0.07 | -0.22 | 0.27 |
| CG13311 | DRSC09982 | 0.96 | 0.32 | -0.38 |
| CG7739 | DRSC10910 | -0.4 | -0.47 | 0.06 |
| Mrtf (Myocardin-related transcription factor) | DRSC08263 | -2.74 | -2.04 | 0.5 |
| Mrtf (Myocardin-related transcription factor) | DRSC08410 | -1.06 | 1.35 | 0.59 |
| Mrtf (Myocardin-related transcription factor) | DRSC08411 | 0.38 | -0.61 | 0.43 |
